For at least one compound, name, drawing or mass did not settle the structure.
Tested on: NCC-HN1, NCC-HN120M and NCC-HN182M cells
Assay: Cell proliferation assay and IC50 determination, TKI and EV co-treatment, HNSCC cell line panel
Format: cell-based, human
Conditions: EV from 293T; FIG. 11H (NCC-HN1 and NCC-HN120M)

`CN(C)C/C=C/C(=O)Nc1cc2c(Nc3ccc(F)c(Cl)c3)ncnc2cc1O[C@H]1CCOC1` [afatinib] was tested. Which “sensitivity of HNSCC cells to the TKI on co-treatment with exosomes containing overexpressed EGFR isoform D” value did it give?
Its value is “sensitized”.

— US12642838B2, “Method of modulating sensitivity to tyrosine kinase inhibitor” (SINGAPORE HEALTH SERVICES PTE LTD, priority 2020, dated 2026)
